# Earlier results as cited in patent US11002740B2, “Methods of detecting and reducing cancer cell central nervous system colonization” (National Jewish Health, priority 2017, dated 2021).
# At least one compound was matched to its structure with a doubt left.
# Key:
# [1] = test system: B-ALL cell line; details: mouse Bcr-Abl+ B-ALL cell line; Boulos et al. 2011
# [2] = test system: NALM-6 cells; details: human B-ALL cell line NALM-6
structure (smiles),measurement,setting,value
C[C@@H]1C[C@H]2[C@@H]3CCC4=CC(=O)C=C[C@]4(C)[C@@]3(F)[C@@H](O)C[C@]2(C)[C@@]1(O)C(=O)CO [dexamethasone],efficacy on B-ALL cell line,[1],has efficacy on this B-ALL cell line
same,efficacy on NALM-6 cells,[2],has efficacy on NALM-6 cells
